# This is one part of the list. These are raw signals, not scaled to a control.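 First-pass screen: polymyxin B was added at a level that permeabilizes the Salmonella outer membrane while sparing the inner membrane. DMSO wells, with and without polymyxin B, defined maximum growth. Because plates differed from one another, each plate's data were ranked separately and the compounds with the lowest OD600 were carried forward as hits.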
# System: Salmonella enterica serovar Typhimurium SL1344
# Assay: bacterial growth OD600 after 18 h with compound and polymyxin B; higher = more bacterial growth (less inhibition)
# Conditions: 50 µM, Mueller-Hinton broth
Structure (SMILES),bacterial growth OD600 (polymyxin B 0.75 µg/mL),bacterial growth OD600 (polymyxin B 1 µg/mL)
O=C(NCc1cccc(C(F)(F)F)c1)C1CC12CCN(Cc1cccc(O)c1)CC2 (stereo unspecified),0.838,
COc1ccccc1CN1C(=O)O[C@@H]2CN(Cc3cccc(C)n3)C[C@@H]21,0.786,
COCCN1C(=O)CC(CC(=O)N(CC2CCC2)CC2CCCO2)(c2ccccc2F)C1=O (stereo unspecified),0.738,
CCN1C(=O)CC(CC(=O)N(CC2CCC2)CC2CCCO2)(c2cccc(C(F)(F)F)c2)C1=O (stereo unspecified),0.002,
CCN(Cc1nccn1C)C(=O)c1ccc(NCc2ccccc2C)nc1,,0.822
COc1ccc2cc(C(=O)C3CCCN(Cc4cccc(C)n4)C3)ccc2c1 (stereo unspecified),,0.765
CCC1CN(CCNC(=O)Cn2ncc3ccccc32)Cc2cc(OC)ccc2O1 (stereo unspecified),0.957,
COc1ccccc1-c1ccnc(-n2ncc(C(=O)N3CCN(C/C=C/c4ccccc4)CC3)c2C)n1,0.757,
Cc1ncc2c(c1CNC(=O)/C=C/c1ccccc1F)CCN(C(=O)c1coc3c1C(=O)CCC3)C2,0.809,
CC(C)CCC(=O)N1CCC(C2(c3ccccn3)NC(=O)N(CCc3cccs3)C2=O)CC1 (stereo unspecified),0.883,
O=C(NCc1c[nH]nc1-c1ccc(F)cc1)C1CCC(=O)N(Cc2ccccn2)C1 (stereo unspecified),,0.776
CN(C)c1cc(N2C[C@H]3OC(=O)N(CCc4cccc(Cl)c4)[C@H]3C2)ncn1,,1.06
CC(=O)c1cccc(OCc2cc(C(=O)N(C)Cc3cc(C)no3)n[nH]2)c1,,0.819
Cc1ccc(F)c(CNC2CCN(c3ccc(C(=O)NCc4ccc5c(c4)OCO5)cc3)CC2)c1F,0.333,
COCC1CCN(c2ccc(C(=O)N3CCCC(COC)C3)cn2)CC1 (stereo unspecified),,0.892
Cc1ccc2c(c1)CN(CC(=O)N1CCC(N3CCOCC3)CC1)CC(c1ccsc1)O2 (stereo unspecified),0.774,

Structure (SMILES),bacterial growth OD600 (polymyxin B 0.75 µg/mL),bacterial growth OD600 (polymyxin B 1 µg/mL)
COc1ccccc1Oc1ncccc1CNC(=O)[C@@H]1CCC(=O)N1,0.956,
CCOc1ccccc1CN1CCC(CO)(CCOc2ccccc2)CC1,,0.753
O=C(NCC1(O)CCCCC1)c1cc(COc2ccccc2F)[nH]n1,,1.04
CC1(C)CC(C(=O)N2CCOc3ccc(CN4CCN(c5ccc(F)cc5)CC4)cc3C2)CCO1 (stereo unspecified),0.848,
COc1cccc(C(=O)NCC2CCCN(Cc3cccc4nonc34)C2)c1OC (stereo unspecified),,0.654
CCn1ccnc1CN(C)C(=O)c1cc(Cn2ccc3ccccc32)[nH]n1,0.815,
O=C(CC(c1ccccc1)c1ccccc1Cl)NCCN1CCCCC1=O (stereo unspecified),,0.911
O=C1CCC(C(=O)N2CCCCO2)CN1CCN1CCOCC1 (stereo unspecified),,0.867
COc1ccc(C(CC(=O)N2CCSCC2)c2ccccc2)cc1 (stereo unspecified),,0.678
Cn1cc(CNC(=O)c2coc(COc3cccc(C(F)(F)F)c3)n2)cn1,,0.958
CO[C@H]1[C@H](NC(=O)C(C)C)c2ccccc2C12CCN(Cc1c[nH]nc1-c1cc(C)ccc1C)CC2,0.847,
Cn1cc(CCC(=O)N2CCc3[nH]nc(-c4ccc(Cl)cc4)c3C2)cn1,0.915,
CC(C)c1nc(CNC(=O)c2ccc(N(C)Cc3ccccc3)nc2)no1,,0.837
CCOC(=O)N1CCC(NC(=O)C2CC23CCN(C(=O)C(c2ccccc2)C2CCCC2)CC3)CC1 (stereo unspecified),0.012,
Cc1nc(CNC2CCN(c3nc(C)c4cc(F)ccc4n3)CC2)nc2c1CCCC2,0.013,

# 2 entries from above, with bars between the fields:
Structure (SMILES) | bacterial growth OD600 (polymyxin B 0.75 µg/mL) | bacterial growth OD600 (polymyxin B 1 µg/mL)
CC(C)c1nc(CNC(=O)c2ccc(N(C)Cc3ccccc3)nc2)no1 |  | 0.837
CCOC(=O)N1CCC(NC(=O)C2CC23CCN(C(=O)C(c2ccccc2)C2CCCC2)CC3)CC1 (stereo unspecified) | 0.012 | 

# From the supplement of paper PMC12889115
